Measured data: PubChem BioAssay AID1053208 (Peter MacCallum Cancer Centre, 2014)
Here is an unselected part of about 17,000 reagents tested. Of all reagents, 788 (4.7%) got an active call. 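Calls rest on z-score classes alone; an extra cut-off of viability at most 70% of control was not applied to them.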 Further read-outs or replicates are left out here.

Assay: 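Find knock-downs that sensitise mouse osteosarcoma cells to doxorubicin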 (primary screen)
Cell system: mouse osteosarcoma cells, early-passage culture from an engineered mouse model of fibroblastic bone tumour
Knock-down reagent: siRNA pool against mouse genes, 40 nM
Time to read-out: about 120 h (48 h before drug, then 72 h with drug)
Treatment: doxorubicin 100 nM for 72 h, roughly 30-40% inhibitory dose
Read-out: 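Luminescent ATP signal taken as viability with or without 100 nM doxorubicin for 72 h; mean of two wells set against non-targeting siRNA and turned into robust z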
Reading the numbers: viability z-score with doxorubicin: higher = more viable cells under doxorubicin; viability z-score without drug: higher = more viable cells with knock-down alone
Hit rule: 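Called active if knock-down leaves viability unchanged without drug (z within -2 to 2) but lowers it with doxorubicin (z at or under -2)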

| combined z-score class | viability z-score with doxorubicin | viability z-score without drug | Outcome | target |
| --- | --- | --- | --- | --- |
| high cell count with and without drug | 2.36 | 2.02 | inactive | Ptafr |
| no change with or without drug | 0 | 0.84 | inactive | Mtrf1l |
| no change with or without drug | 0 | 1.52 | inactive | Usp49 |
| no change with or without drug | -0.22 | 0.17 | inactive | Pdcd11 |
| no change with or without drug | 1.8 | 1.18 | inactive | Slc35b4 |
| low cell count without drug only | 0.45 | -2.53 | inactive | Igf1 |
| no change with or without drug | 0.45 | 1.18 | inactive | Nexn |
| no change with or without drug | 0.79 | 1.52 | inactive | Piwil2 |

The list goes on (2 carried over from the part before).
| combined z-score class | viability z-score with doxorubicin | viability z-score without drug | Outcome | target |
| --- | --- | --- | --- | --- |
| no change with or without drug | 0.45 | 1.18 | inactive | Nexn |
| no change with or without drug | 0.79 | 1.52 | inactive | Piwil2 |
| no change with or without drug | 1.8 | 1.85 | inactive | Hint1 |
| no change with or without drug | 0.79 | 0 | inactive | Hspa14 |
| no change with or without drug | -0.22 | 0 | inactive | Gsc |
| high cell count without drug only | 0.22 | 2.02 | inactive | Ifi27 |
| no change with or without drug | -0.9 | -0.17 | inactive | Tiam1 |
| no change with or without drug | 0.22 | -0.84 | inactive | Krt79 |
| no change with or without drug | 0 | -0.51 | inactive | Sord |
| no change with or without drug | 0.79 | -0.51 | inactive | C130021I20Rik |
| no change with or without drug | 0.22 | 0.17 | inactive | Zfp239 |
| no change with or without drug | 1.57 | 0 | inactive | Igsf21 |
| no change with or without drug | 0 | 0.51 | inactive | Eras |
| no change with or without drug | 0 | 1.18 | inactive | Nudt16l2 |
